Some results were stated once for a whole list of compounds, not compound by compound.
Tests used:
[1] = tested on: S. aureus ATCC29213; test: MIC against MSSA; type: cell-based, Staphylococcus aureus; conditions: MSSA ATCC 29213; Table 10, unit not given
[2] = tested on: E. faecium NCTC7171; test: MIC against E. faecium; type: cell-based, Enterococcus faecium; conditions: E. faecium NCTC 7171; Table 10, unit not given

| Structure (SMILES) | Activity (MIC) against S. aureus [1] | Activity (MIC) against E. faecium [2] |
| --- | --- | --- |
| O=C(Nc1ncco1)c1cc(-c2ccc(Cl)c(Cl)c2)ccn1 [Compound 87, 4-(3,4-Dichlorophenyl)-N-(oxazol-2-yl)picolinamide] | lacked activity | lacked activity |
| O=C(Nc1ncco1)c1cc(-c2ccc(Cl)cc2)ccn1 [Compound 88, 4-(4-Chlorophenyl)-N-(oxazol-2-yl)picolinamide] | lacked activity | lacked activity |
| O=C(Nc1ncco1)c1cc(-c2ccc(F)cc2)ccn1 [Compound 89, 4-(4-Fluorophenyl)-N-(oxazol-2-yl)picolinamide] | lacked activity | lacked activity |
| O=C(Nc1ncco1)c1cc(-c2ccc(F)c(F)c2)ccn1 [Compound 90, 4-(3,4-Difluorophenyl)-N-(oxazol-2-yl)picolinamide] | lacked activity | lacked activity |
| O=C(Nc1ncco1)c1cc(-c2ccc(F)c(Cl)c2)ccn1 [Compound 91, 4-(3-Chloro-4-fluorophenyl)-N-(oxazol-2-yl)picolinamide] | lacked activity | lacked activity |
| O=C(Nc1ncco1)c1cc(-c2ccc(Cl)c(F)c2)ccn1 [Compound 92, 4-(4-Chloro-3-fluorophenyl)-N-(oxazol-2-yl)picolinamide] | lacked activity | lacked activity |
| O=C(Nc1ncco1)c1cc(-c2cccc(F)c2)ccn1 [Compound 93, 4-(3-Fluorophenyl)-N-(oxazol-2-yl)picolinamide] | lacked activity | lacked activity |
| O=C(Nc1ncco1)c1cc(-c2cc(F)cc(F)c2)ccn1 [Compound 94, 4-(3,5-Difluorophenyl)-N-(oxazol-2-yl)picolinamide] | lacked activity | lacked activity |
| O=C(Nc1ncco1)c1cc(-c2ccc(OC(F)(F)F)cc2)ccn1 [Compound 95, N-(Oxazol-2-yl)-4-(4-(trifluoromethoxy)phenyl)picolinamide] | lacked activity | lacked activity |
| O=C(Nc1ncco1)c1cc(-c2cccc(OC(F)(F)F)c2)ccn1 [Compound 96, N-(Oxazol-2-yl)-4-(3-(trifluoromethoxy)phenyl)picolinamide] | lacked activity | lacked activity |
| O=C(Nc1ncco1)c1cc(-c2ccc(C(F)(F)F)cc2)ccn1 [Compound 97, N-(Oxazol-2-yl)-4-(4-(trifluoromethyl)phenyl)picolinamide] | lacked activity | lacked activity |
| O=C(Nc1ncco1)c1cc(-c2cccc(C(F)(F)F)c2)ccn1 [Compound 98, N-(Oxazol-2-yl)-4-(3-(trifluoromethyl)phenyl)picolinamide] | lacked activity | lacked activity |
